The supplement of paper PMC10849652
This is one part of the list.

Amino acid sequences for entries named in this document (tags omitted). A change or cut given only in a name is not applied to a line headed by its entry.
UniProt Q6ZT21: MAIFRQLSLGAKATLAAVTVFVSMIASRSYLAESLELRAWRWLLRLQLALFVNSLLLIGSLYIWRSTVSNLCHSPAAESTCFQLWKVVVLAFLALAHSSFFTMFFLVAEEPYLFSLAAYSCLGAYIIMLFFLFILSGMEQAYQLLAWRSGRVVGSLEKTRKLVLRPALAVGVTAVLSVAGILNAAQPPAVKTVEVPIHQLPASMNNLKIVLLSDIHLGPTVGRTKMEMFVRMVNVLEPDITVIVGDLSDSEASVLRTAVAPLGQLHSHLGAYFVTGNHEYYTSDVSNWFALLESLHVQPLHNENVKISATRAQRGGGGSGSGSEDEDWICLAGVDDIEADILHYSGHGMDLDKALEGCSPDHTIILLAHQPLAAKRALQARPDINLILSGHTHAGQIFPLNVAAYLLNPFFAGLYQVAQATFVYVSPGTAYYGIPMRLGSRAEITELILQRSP
UniProt Q9BRN9: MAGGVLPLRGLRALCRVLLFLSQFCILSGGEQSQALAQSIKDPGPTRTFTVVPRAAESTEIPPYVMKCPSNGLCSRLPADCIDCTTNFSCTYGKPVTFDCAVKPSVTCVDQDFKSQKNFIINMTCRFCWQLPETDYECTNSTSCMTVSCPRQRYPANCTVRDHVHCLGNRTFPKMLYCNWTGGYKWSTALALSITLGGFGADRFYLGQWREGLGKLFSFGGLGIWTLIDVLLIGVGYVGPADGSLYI
UniProt Q9H1E5: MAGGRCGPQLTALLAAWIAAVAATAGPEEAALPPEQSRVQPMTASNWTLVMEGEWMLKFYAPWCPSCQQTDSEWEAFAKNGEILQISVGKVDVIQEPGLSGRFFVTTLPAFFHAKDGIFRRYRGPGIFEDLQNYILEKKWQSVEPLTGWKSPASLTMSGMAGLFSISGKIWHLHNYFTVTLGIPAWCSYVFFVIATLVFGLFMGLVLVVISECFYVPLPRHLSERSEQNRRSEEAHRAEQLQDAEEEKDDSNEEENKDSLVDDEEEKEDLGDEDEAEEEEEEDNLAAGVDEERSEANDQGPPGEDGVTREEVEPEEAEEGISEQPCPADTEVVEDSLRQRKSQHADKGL
UniProt Q9H0R3: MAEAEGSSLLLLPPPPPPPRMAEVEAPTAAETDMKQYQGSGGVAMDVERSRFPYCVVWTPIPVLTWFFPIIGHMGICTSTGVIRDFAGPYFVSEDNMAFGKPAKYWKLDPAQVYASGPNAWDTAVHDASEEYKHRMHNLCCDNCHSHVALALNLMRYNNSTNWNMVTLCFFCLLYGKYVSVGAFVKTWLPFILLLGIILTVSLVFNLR
UniProt Q86UB9: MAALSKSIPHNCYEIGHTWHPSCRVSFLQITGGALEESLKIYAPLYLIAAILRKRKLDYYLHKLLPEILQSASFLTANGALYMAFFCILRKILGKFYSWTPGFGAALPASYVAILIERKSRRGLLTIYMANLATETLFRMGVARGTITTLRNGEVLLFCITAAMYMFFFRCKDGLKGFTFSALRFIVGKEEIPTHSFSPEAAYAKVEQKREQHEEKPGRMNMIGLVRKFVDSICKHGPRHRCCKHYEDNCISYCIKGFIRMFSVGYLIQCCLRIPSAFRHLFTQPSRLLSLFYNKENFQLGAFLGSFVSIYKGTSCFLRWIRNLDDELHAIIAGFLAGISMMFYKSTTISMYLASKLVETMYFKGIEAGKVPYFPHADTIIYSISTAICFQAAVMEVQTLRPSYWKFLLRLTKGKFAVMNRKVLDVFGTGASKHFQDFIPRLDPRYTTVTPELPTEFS
UniProt Q9Y2S6, whole entry, looked up: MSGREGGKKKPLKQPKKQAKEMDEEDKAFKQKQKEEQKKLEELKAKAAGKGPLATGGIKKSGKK
UniProt Q8IUX1: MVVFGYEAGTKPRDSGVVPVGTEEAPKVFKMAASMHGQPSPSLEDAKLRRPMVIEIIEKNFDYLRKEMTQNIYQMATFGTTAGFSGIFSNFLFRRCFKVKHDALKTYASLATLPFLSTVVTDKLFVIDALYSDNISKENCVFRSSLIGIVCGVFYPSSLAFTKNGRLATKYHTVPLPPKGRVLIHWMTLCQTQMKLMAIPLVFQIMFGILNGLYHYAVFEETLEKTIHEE
UniProt Q9BZW5, whole entry, looked up: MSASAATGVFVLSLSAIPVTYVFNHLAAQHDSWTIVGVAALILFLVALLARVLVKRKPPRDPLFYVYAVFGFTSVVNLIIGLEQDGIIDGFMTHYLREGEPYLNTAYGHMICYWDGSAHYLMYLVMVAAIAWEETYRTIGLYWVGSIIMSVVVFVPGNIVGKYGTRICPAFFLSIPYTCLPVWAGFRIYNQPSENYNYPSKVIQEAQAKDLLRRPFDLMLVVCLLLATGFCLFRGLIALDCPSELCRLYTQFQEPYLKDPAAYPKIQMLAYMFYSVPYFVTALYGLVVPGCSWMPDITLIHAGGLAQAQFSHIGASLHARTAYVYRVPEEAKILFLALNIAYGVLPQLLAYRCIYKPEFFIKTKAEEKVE
UniProt Q96SK2: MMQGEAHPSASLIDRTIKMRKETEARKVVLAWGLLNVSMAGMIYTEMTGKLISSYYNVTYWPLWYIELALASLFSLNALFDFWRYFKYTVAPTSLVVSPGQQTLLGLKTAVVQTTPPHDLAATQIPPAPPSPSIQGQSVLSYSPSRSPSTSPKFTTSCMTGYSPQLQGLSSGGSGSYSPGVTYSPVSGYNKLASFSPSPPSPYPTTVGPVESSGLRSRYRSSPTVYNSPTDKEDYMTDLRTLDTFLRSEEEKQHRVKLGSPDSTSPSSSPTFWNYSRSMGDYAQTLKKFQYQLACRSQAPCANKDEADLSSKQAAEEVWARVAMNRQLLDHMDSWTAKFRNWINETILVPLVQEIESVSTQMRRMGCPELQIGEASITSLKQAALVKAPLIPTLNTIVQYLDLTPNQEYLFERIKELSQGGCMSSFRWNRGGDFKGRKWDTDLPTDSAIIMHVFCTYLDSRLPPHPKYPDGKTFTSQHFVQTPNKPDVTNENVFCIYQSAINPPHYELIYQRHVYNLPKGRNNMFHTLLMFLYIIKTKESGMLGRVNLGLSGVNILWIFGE
UniProt Q9Y3Q3: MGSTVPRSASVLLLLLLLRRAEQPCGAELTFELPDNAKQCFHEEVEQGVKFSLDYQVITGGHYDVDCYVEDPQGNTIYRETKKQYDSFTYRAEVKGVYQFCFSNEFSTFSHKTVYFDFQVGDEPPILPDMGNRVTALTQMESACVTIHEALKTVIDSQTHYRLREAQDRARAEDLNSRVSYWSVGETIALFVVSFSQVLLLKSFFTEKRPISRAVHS
UniProt Q8NDZ6: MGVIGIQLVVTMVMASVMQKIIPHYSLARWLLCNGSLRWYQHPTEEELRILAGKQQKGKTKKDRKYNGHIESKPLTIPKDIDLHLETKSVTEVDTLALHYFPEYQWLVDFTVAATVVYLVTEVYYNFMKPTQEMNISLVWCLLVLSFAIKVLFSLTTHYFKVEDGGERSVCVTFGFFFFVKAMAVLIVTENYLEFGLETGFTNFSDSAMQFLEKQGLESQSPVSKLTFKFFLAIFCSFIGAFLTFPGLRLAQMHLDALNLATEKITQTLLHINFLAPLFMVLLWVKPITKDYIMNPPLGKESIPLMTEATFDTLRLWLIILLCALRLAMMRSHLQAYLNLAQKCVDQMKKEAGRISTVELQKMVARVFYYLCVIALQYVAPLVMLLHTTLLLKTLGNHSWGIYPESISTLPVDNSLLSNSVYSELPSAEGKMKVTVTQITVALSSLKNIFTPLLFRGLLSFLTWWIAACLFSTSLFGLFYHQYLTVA
UniProt Q8TDI8: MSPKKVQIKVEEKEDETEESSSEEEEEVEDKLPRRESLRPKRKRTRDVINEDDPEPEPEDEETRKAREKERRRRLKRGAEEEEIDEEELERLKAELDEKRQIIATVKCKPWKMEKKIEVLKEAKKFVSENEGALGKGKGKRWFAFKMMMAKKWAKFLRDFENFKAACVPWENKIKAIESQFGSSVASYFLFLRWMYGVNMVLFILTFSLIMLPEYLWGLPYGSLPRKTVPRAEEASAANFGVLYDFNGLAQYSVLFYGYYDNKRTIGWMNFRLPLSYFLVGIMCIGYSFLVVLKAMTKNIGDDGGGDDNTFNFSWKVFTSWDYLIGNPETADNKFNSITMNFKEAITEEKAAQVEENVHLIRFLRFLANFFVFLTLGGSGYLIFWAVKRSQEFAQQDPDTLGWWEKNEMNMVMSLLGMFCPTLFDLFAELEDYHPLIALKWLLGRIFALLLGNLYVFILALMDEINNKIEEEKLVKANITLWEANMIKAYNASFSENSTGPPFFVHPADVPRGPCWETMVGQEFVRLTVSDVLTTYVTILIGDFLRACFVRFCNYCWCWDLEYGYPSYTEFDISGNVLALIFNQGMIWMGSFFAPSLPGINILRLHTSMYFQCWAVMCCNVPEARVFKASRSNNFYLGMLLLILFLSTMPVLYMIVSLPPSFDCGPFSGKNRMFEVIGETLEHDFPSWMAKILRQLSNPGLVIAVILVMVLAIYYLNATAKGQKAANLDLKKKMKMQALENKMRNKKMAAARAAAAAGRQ
UniProt P63313: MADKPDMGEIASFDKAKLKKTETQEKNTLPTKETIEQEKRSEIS
UniProt Q96MH6: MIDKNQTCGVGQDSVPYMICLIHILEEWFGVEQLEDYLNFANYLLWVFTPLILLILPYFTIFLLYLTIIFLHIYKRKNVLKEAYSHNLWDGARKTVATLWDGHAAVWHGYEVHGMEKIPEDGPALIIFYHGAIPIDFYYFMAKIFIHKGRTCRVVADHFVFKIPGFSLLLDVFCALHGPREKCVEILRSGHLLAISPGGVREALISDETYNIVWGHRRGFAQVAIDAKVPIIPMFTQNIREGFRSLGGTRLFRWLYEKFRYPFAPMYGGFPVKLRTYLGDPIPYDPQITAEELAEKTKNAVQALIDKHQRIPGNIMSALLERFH
UniProt Q9BVC6: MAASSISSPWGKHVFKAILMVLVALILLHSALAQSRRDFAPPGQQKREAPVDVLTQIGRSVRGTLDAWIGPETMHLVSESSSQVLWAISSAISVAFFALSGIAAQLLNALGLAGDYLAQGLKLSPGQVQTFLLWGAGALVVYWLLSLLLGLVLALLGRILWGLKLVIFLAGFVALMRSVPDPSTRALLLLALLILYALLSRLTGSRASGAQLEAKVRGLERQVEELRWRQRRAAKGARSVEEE

Legend:
Assay in all cases: log2 fold change, soluble protein after heating vs DMSO (PISA); higher = thermal stabilisation; K562 cells, 10 uM, 30 min; active = over 0.2 and 3.5 SD of the protein, either way, in both replicates (recomputed)
[1] = compound: CS(=O)(=O)c1ccc(-c2cnc(N)c(C(=O)Nc3ccccc3)n2)cc1
Procedure, shortened: (§1)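 Aliquots of K562 cells (2×10^6 cells/mL) treated with 10 μM compound for 30 min were heated for 3 min over 48°C-58°C. After pooling and extraction in PBS with 0.5% NP-40 at 4°C, soluble protein from a 21,000xg, 90 min spin was quantified by TMTpro 16plex LC-MS/MS with channel sums equalised. Thermal stability is expressed against control samples, from duplicates, as a log2 fold change.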

crizotinib = compound: C[C@@H](Oc1cc(-c2cnn(C3CCNCC3)c2)cnc1N)c1c(Cl)ccc(F)c1Cl [crizotinib]
Procedure, shortened: as §1

[2] = compound: C[C@@H]1COCCN1C2=NC(=NC(=C2)C3(CC3)S(=O)(=O)C)C4=C5C=CNC5=CC=C4
Procedure, shortened: as §1

[3] = compound: C[C@H](C1=CC=C(C=C1)C(=O)NC2=C3C=CNC3=NC=C2)N
Procedure, shortened: as §1

duvelisib = compound: C[C@H](Nc1ncnc2nc[nH]c12)c1cc2cccc(Cl)c2c(=O)n1-c1ccccc1 [duvelisib]
Procedure, shortened: as §1

gandotinib = compound: Cc1cc(Nc2cc(CN3CCOCC3)c3nc(C)c(Cc4ccc(Cl)cc4F)n3n2)n[nH]1 [gandotinib]
Procedure, shortened: as §1

tozasertib = compound: Cc1cc(Nc2cc(N3CCN(C)CC3)nc(Sc3ccc(NC(=O)C4CC4)cc3)n2)n[nH]1 [tozasertib]
Procedure, shortened: as §1

[4] = compound: Cc1cc(SCc2sc(-c3ccc(C(F)(F)F)cc3)nc2C)ccc1OCC(=O)O
Procedure, shortened: as §1

doramapimod = compound: Cc1ccc(-n2nc(C(C)(C)C)cc2NC(=O)Nc2ccc(OCCN3CCOCC3)c3ccccc23)cc1 [doramapimod]
Procedure, shortened: as §1

ispinesib = compound: Cc1ccc(C(=O)N(CCCN)[C@@H](c2nc3cc(Cl)ccc3c(=O)n2Cc2ccccc2)C(C)C)cc1 [ispinesib]
Procedure, shortened: as §1

bafetinib = compound: Cc1ccc(NC(=O)c2ccc(CN3CC[C@H](N(C)C)C3)c(C(F)(F)F)c2)cc1Nc1nccc(-c2cncnc2)n1 [bafetinib]
Procedure, shortened: as §1

[5] = compound: Cc1cccc(CC(=O)N2CCc3c2ccc(-c2cn(C)c4ncnc(N)c24)c3F)n1
Procedure, shortened: as §1

nilotinib = compound: Cc1cn(-c2cc(NC(=O)c3ccc(C)c(Nc4nccc(-c5cccnc5)n4)c3)cc(C(F)(F)F)c2)cn1 [nilotinib]
Procedure, shortened: as §1

[6] = compound: Cc1nc(Nc2n[nH]c3c2CN(C(=O)N[C@H](CN(C)C)c2ccccc2)C3(C)C)c2sccc2n1
Procedure, shortened: as §1

dasatinib = compound: Cc1nc(Nc2ncc(C(=O)Nc3c(C)cccc3Cl)s2)cc(N2CCN(CCO)CC2)n1 [dasatinib]
Procedure, shortened: as §1

[7] = compound: Cc1ncc(-c2ccnc(Nc3ccc(S(C)(=O)=O)cc3)n2)n1C(C)C
Procedure, shortened: as §1

[8] = compound: Cn1cc(-c2ccc3c(c2)CCN3C(=O)Cc2cccc(C(F)(F)F)c2)c2c(N)ncnc21
Procedure, shortened: as §1

[9] = compound: Cn1cc(-c2ccc3nnc(C(F)(F)c4ccc5ncccc5c4)n3n2)cn1
Procedure, shortened: as §1

tipifarnib = compound: Cn1cncc1[C@@](N)(c1ccc(Cl)cc1)c1ccc2c(c1)c(-c1cccc(Cl)c1)cc(=O)n2C [tipifarnib]
Procedure, shortened: as §1

mubritinib = compound: FC(F)(F)c1ccc(/C=C/c2nc(COc3ccc(CCCCn4ccnn4)cc3)co2)cc1 [mubritinib]
Procedure, shortened: as §1

Measured: log2 fold change

TMPPE (UniProt Q6ZT21)
inactive: [1] -0.001 | crizotinib -0.009 | [2] 0.087 | [3] 0.004 | duvelisib 0.024 | gandotinib 0.113 | tozasertib -0.034 | [4] -0.039 | doramapimod 0.018 | ispinesib -0.011 | bafetinib 0.037 | [5] -0.037 | nilotinib 0.001 | [6] 0.011 | dasatinib 0.017 | [7] -0.05 | [8] 0.039 | [9] 0.049 | tipifarnib 0.077 | mubritinib 0.011

TM2D3 (UniProt Q9BRN9)
inactive: [1] 0.074 | crizotinib -0.112 | [2] -0.144 | [3] -0.02 | duvelisib 0.067 | gandotinib -0.004 | tozasertib 0.007 | [4] 0.067 | doramapimod -0.01 | ispinesib -0.063 | bafetinib 0.002 | [5] -0.108 | nilotinib -0.162 | [6] -0.035 | dasatinib 0.052 | [7] -0.014 | [8] -0.132 | [9] -0.014 | tipifarnib 0.133 | mubritinib -0.139

TMX4 (UniProt Q9H1E5)
inactive: [1] 0.038 | crizotinib 0.063 | [2] -0.026 | [3] 0.169 | duvelisib 0.012 | gandotinib 0.137 | tozasertib -0.013 | [4] 0.045 | doramapimod 0.046 | ispinesib -0.007 | bafetinib -0.101 | [5] -0.145 | nilotinib 0.096 | [6] 0.039 | dasatinib -0.025 | [7] -0.116 | [8] -0.005 | [9] -0.034 | tipifarnib 0.128 | mubritinib 0.017

TMEM222 (UniProt Q9H0R3)
inactive: [1] 0.049 | crizotinib 0.035 | [2] 0.207 | [3] 0.161 | duvelisib -0.096 | gandotinib 0.031 | tozasertib 0.069 | [4] 0.155 | doramapimod 0.155 | ispinesib 0.113 | bafetinib 0.017 | [5] 0.148 | nilotinib -0.037 | [6] -0.092 | dasatinib 0.06 | [7] 0.003 | [8] -0.006 | [9] 0.053 | tipifarnib 0.118 | mubritinib -0.035

TMEM135 (UniProt Q86UB9)
inactive: [1] 0.003 | crizotinib 0.015 | [2] 0.106 | [3] 0.05 | duvelisib 0.021 | gandotinib -0.042 | tozasertib -0.013 | [4] -0.017 | doramapimod 0.002 | ispinesib 0.033 | bafetinib -0.035 | [5] -0.047 | nilotinib 0.011 | [6] 0.003 | dasatinib -0.02 | [7] 0.001 | [8] 0.053 | [9] -0.012 | tipifarnib 0.067 | mubritinib -0.029

TMA7 (UniProt Q9Y2S6)
inactive: [1] 0.045 | crizotinib 0.078 | [2] -0.003 | [3] -0.034 | duvelisib 0.044 | gandotinib -0.061 | tozasertib -0.031 | [4] -0.046 | doramapimod -0.034 | ispinesib -0.021 | bafetinib -0.028 | [5] -0.092 | nilotinib 0.007 | [6] -0.029 | dasatinib 0.008 | [7] -0.018 | [8] 0.016 | [9] 0.039 | tipifarnib -0.008 | mubritinib 0.047

TMEM126B (UniProt Q8IUX1)
inactive: [1] -0.085 | crizotinib -0.029 | [2] 0.064 | [3] -0.024 | duvelisib 0.086 | gandotinib -0.023 | tozasertib -0.013 | [4] -0.051 | doramapimod -0.026 | ispinesib -0.071 | bafetinib -0.036 | [5] 0.051 | nilotinib 0.023 | [6] 0 | dasatinib 0.013 | [7] 0.047 | [8] 0.075 | [9] 0.005 | mubritinib 0.017

TM6SF1 (UniProt Q9BZW5)
inactive: [1] 0.027 | crizotinib 0.113 | [2] -0.013 | [3] 0.173 | duvelisib -0.159 | gandotinib -0.034 | tozasertib 0 | [4] 0.004 | doramapimod -0.024 | ispinesib 0.114 | [5] 0.03 | nilotinib -0.031 | [6] -0.002 | dasatinib -0.021 | [7] -0.071 | [8] 0.101 | [9] -0.06 | tipifarnib 0.013 | mubritinib -0.04

TMEM209 (UniProt Q96SK2)
inactive: [1] 0.074 | crizotinib -0.062 | [2] 0.061 | [3] 0 | duvelisib 0.01 | gandotinib -0.087 | tozasertib -0.031 | [4] 0.002 | doramapimod 0.032 | ispinesib -0.059 | bafetinib -0.042 | [5] 0.004 | nilotinib -0.02 | [6] -0.029 | dasatinib -0.08 | [7] 0.065 | [8] 0.029 | [9] -0.077 | tipifarnib -0.006 | mubritinib 0.005

TMED3 (UniProt Q9Y3Q3)
inactive: [1] -0.03 | crizotinib -0.021 | [2] 0.003 | [3] 0.05 | duvelisib 0.001 | gandotinib -0.057 | tozasertib -0.003 | [4] 0.064 | doramapimod 0.04 | bafetinib -0.13 | [5] 0.003 | nilotinib -0.107 | [6] 0.103 | dasatinib -0.04 | [7] 0.013 | [8] 0.009 | tipifarnib -0.032 | mubritinib -0.041

TMEM161B (UniProt Q8NDZ6)
active: dasatinib -0.273
inactive: [1] 0.026 | crizotinib -0.096 | [2] 0.004 | [3] 0.002 | gandotinib -0.156 | [4] 0.11 | doramapimod -0.024 | ispinesib -0.055 | bafetinib -0.01 | [5] 0.073 | nilotinib -0.148 | [6] -0.018 | [7] -0.046 | [8] -0.08 | [9] 0.103 | tipifarnib -0.043 | mubritinib 0.036

2 records picked at random from the list so far:
TMEM209 (UniProt Q96SK2)
inactive: [1] 0.074 | crizotinib -0.062 | [2] 0.061 | [3] 0 | duvelisib 0.01 | gandotinib -0.087 | tozasertib -0.031 | [4] 0.002 | doramapimod 0.032 | ispinesib -0.059 | bafetinib -0.042 | [5] 0.004 | nilotinib -0.02 | [6] -0.029 | dasatinib -0.08 | [7] 0.065 | [8] 0.029 | [9] -0.077 | tipifarnib -0.006 | mubritinib 0.005

TMED3 (UniProt Q9Y3Q3)
inactive: [1] -0.03 | crizotinib -0.021 | [2] 0.003 | [3] 0.05 | duvelisib 0.001 | gandotinib -0.057 | tozasertib -0.003 | [4] 0.064 | doramapimod 0.04 | bafetinib -0.13 | [5] 0.003 | nilotinib -0.107 | [6] 0.103 | dasatinib -0.04 | [7] 0.013 | [8] 0.009 | tipifarnib -0.032 | mubritinib -0.041

Continued:

TMC1 (UniProt Q8TDI8)
inactive: [1] -0.049 | crizotinib 0.02 | [2] 0.113 | [3] 0.073 | duvelisib 0.153 | gandotinib -0.479 | tozasertib -0.073 | [4] -0.089 | doramapimod 0.1 | bafetinib 0.189 | [5] -0.011 | nilotinib -0.39 | [6] 0.179 | dasatinib 0.201 | [7] -0.177 | [8] 0.031 | tipifarnib 0.029 | mubritinib 0.01

TMSB10 (UniProt P63313)
inactive: [1] 0.014 | crizotinib 0.098 | [2] 0.234 | [3] -0.15 | duvelisib 0.213 | gandotinib 0.123 | tozasertib 0.007 | [4] 0.031 | doramapimod 0.005 | ispinesib 0.269 | bafetinib -0.055 | [5] -0.112 | nilotinib 0.043 | [6] -0.03 | dasatinib 0.025 | [7] -0.072 | [8] 0.166 | [9] 0.337 | tipifarnib 0.119 | mubritinib 0.005

TMEM68 (UniProt Q96MH6)
inactive: [1] 0.014 | crizotinib 0.095 | [2] 0.041 | [3] -0.021 | duvelisib 0.023 | gandotinib -0.033 | tozasertib -0.021 | [4] -0.049 | doramapimod 0 | ispinesib -0.025 | bafetinib -0.077 | [5] -0.018 | nilotinib -0.014 | [6] -0.017 | dasatinib -0.076 | [7] -0.015 | [8] 0.06 | [9] 0.034 | tipifarnib 0.058 | mubritinib 0.067

TMEM109 (UniProt Q9BVC6)
inactive: [1] -0.02 | crizotinib 0.083 | [2] 0.035 | [3] 0.012 | duvelisib 0.071 | gandotinib 0.01 | tozasertib -0.079 | [4] -0.074 | doramapimod -0.054 | ispinesib 0.029 | bafetinib -0.031 | [5] -0.094 | nilotinib 0.002 | [6] 0.024 | dasatinib 0.046 | [7] -0.028 | [8] 0.013 | [9] 0.031 | tipifarnib -0.007 | mubritinib 0.035
